These are yes or no findings as the source states them, for the method shown. Binding seen in cells or lysates may run through a third protein. Some results given as binding are weak or reduced against the parent protein; the word gives no strength.
Experiments:
[1] = molecular target: MHC class I H-2K^b (mouse (C57BL/6)); assay: acid elution from immunoaffinity-purified H-2Kb of C. muridarum-infected dendritic cells, LC-MS/MS
[2] = molecular target: MHC class II I-A^b (mouse (C57BL/6)) (UniProt P14434+P14483); assay: acid elution from immunoaffinity-purified I-Ab of C. muridarum-infected dendritic cells, LC-MS/MS

Sequences of proteins named here, by UniProt entry; tags and fusion partners are left off. A change or cut given only in a name is not applied to a line headed by its entry.
UniProt P14434: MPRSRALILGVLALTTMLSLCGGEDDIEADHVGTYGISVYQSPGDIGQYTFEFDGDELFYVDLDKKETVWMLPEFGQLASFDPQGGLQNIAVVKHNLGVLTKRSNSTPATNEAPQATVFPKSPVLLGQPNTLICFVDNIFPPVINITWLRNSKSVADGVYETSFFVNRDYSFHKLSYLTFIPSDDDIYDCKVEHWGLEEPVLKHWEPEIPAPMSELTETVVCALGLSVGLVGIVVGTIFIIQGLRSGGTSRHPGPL
UniProt P14483: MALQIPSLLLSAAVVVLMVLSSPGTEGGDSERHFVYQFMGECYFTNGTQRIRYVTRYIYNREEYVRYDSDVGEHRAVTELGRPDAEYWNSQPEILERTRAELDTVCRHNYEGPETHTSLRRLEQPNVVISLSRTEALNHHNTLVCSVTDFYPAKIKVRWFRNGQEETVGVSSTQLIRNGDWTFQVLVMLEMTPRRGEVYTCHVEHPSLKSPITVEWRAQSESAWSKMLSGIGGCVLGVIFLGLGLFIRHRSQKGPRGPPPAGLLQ

| binding [1] | binding [2] | Binder |
| --- | --- | --- |
| binds |  | SSLFLVKL [Amino acid permease peptide SSLFLVKL (SEQ ID NO: 19)] |
|  | binds | GNEVFVSPAAHIIDRPG [Ribosomal protein L6 peptide … (SEQ ID NO: 21)] |
|  | binds | KGNEVFVSPAAHIIDRPG [Ribosomal protein L6 peptide … (SEQ ID NO: 22)] |
|  | binds | EVFVSPAAHIIDRPG [Ribosomal protein L6 peptide … (SEQ ID NO: 23)] |
|  | binds | SPGQTNYAAAKAGIIG [3-oxoacyl-(acyl carrier protein) reductase peptide … (SEQ ID NO: 24)] |
|  | binds | SPIYVDPAAAGGQPPA [Polymorphic membrane protein G1 family peptide … (SEQ ID NO: 27)] |
|  | binds | ASPIYVDPAAAGGQPPA [Polymorphic membrane protein G1 family peptide … (SEQ ID NO: 28)] |
|  | binds | GNEVFVSPAAHIID [Ribosomal protein L6 peptide … (SEQ ID NO: 20)] |
|  | binds | MTTVHAATATQSVVD [Glyceraldehyde 3-phosphate dehydrogenase peptide … (SEQ ID NO: 32)] |
|  | binds | SPGQTNYAAAKAGIIGFS [3-oxoacyl-(acyl carrier protein) reductase peptide … (SEQ ID NO: 25)] |
